Experimental findings from paper PMC6058673, “Comparison of hyaluronic acid-based micelles and polyethylene glycol-based micelles on reversal of multidrug resistance and enhanced anticancer efficacy in vitro and in vivo” (Drug Delivery, 2018) are described below.

The experiment relates to MCF-7 cells. As to the kind of experiment: MTT cytotoxicity assay in sensitive MCF-7 cells. The experiment is classed as cell-based. The note with it: Homo sapiens, MCF7, DOX concentration. On the procedure: The sensitive MCF-7 and multidrug-resistant MCF-7/Adr cells were obtained from Nanjing Kaiji Biotech. Ltd. Co. (Jiangsu, China). Cells were cultured in RPMI-1640 medium containing 10% (v/v) FBS and 1% penicillin–streptomycin at 37 °C with 5% CO2. Additionally, MCF-7/Adr cells were incubated in medium with 1 μg/mL DOX.
The cytotoxicity of various formulations against MCF-7 and MCF-7/Adr cells was assessed by MTT assay. Briefly, MCF-7 and MCF-7/Adr cells were seeded in 96-well plates at a density of 5 × 10^4 cells/well/0.1 mL 1640 culture medium and cultured for 24 h. Then, the cells were treated with DOX-Sol, DOX + Cur, HA-PMs, TPGS2k-PMs and HA/TPGS2k-PMs with multiple concentrations of DOX for 48 and 72 h, respectively. The cells incubated with medium only were utilized as control. At time interval, 20 μL MTT (5 mg/mL) was added and incubated for another 4 h. After that, the medium of each well was discarded and added 200 μL DMSO. The absorbance of each well was measured at 570 nm using a microplate reader. Half-maximal inhibitory concentration (IC50), the resistant index (RI) and reversal factor (RF) were calculated and used to evaluate MDR reversal effects by micelles(Ling et al., [2010]; Wang et al., [2012]).

≈ marks a conversion by molar mass, not a printed value.

`COc1cccc2c1C(=O)c1c(O)c3c(c(O)c1C2=O)C[C@@](O)(C(=O)CO)C[C@@H]3O[C@H]1C[C@H](N)[C@H](O)[C@H](C)O1` [DOX-Sol, Doxorubicin]: the concentration for half-maximal inhibition (IC50) runs as follows: (MCF-7, 48h) 0.75 µg/mL (≈ 1.38 µM); (MCF-7, 72h) 0.51 µg/mL (≈ 0.938 µM).
